Data from the supplement of paper PMC12067093, “Discovery and optimisation of a covalent ligand for TRIM25 and its application to targeted protein ubiquitination” (Chemical Science, 2025).
Some of the results follow.

Protein sequences, listed by entry. Tags and fused reporters are not part of them. Lines headed by an entry give the natural chain unless they say otherwise; changes in a name come on top.
UniProt Q9ULE6: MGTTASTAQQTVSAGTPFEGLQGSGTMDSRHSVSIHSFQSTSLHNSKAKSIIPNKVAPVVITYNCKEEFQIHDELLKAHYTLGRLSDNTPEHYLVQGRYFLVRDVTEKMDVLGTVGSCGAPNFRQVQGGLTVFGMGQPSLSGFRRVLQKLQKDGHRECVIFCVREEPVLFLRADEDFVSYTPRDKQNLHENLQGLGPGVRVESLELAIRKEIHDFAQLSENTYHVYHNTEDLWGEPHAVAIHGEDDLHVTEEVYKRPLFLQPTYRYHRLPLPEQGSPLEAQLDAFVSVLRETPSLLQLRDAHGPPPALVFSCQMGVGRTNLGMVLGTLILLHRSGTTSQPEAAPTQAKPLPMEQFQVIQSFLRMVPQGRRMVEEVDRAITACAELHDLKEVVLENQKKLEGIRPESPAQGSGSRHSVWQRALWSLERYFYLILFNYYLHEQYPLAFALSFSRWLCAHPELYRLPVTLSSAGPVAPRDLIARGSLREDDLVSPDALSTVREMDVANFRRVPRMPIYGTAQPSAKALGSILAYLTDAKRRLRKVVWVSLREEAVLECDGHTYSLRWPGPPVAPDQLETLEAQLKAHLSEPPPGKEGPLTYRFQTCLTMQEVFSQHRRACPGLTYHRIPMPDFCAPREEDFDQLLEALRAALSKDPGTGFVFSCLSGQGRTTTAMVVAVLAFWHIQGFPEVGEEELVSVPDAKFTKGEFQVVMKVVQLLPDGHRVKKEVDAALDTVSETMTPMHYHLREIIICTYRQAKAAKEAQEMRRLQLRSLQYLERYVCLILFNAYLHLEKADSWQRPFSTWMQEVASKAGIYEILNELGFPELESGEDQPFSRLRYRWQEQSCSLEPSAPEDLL
UniProt O14841: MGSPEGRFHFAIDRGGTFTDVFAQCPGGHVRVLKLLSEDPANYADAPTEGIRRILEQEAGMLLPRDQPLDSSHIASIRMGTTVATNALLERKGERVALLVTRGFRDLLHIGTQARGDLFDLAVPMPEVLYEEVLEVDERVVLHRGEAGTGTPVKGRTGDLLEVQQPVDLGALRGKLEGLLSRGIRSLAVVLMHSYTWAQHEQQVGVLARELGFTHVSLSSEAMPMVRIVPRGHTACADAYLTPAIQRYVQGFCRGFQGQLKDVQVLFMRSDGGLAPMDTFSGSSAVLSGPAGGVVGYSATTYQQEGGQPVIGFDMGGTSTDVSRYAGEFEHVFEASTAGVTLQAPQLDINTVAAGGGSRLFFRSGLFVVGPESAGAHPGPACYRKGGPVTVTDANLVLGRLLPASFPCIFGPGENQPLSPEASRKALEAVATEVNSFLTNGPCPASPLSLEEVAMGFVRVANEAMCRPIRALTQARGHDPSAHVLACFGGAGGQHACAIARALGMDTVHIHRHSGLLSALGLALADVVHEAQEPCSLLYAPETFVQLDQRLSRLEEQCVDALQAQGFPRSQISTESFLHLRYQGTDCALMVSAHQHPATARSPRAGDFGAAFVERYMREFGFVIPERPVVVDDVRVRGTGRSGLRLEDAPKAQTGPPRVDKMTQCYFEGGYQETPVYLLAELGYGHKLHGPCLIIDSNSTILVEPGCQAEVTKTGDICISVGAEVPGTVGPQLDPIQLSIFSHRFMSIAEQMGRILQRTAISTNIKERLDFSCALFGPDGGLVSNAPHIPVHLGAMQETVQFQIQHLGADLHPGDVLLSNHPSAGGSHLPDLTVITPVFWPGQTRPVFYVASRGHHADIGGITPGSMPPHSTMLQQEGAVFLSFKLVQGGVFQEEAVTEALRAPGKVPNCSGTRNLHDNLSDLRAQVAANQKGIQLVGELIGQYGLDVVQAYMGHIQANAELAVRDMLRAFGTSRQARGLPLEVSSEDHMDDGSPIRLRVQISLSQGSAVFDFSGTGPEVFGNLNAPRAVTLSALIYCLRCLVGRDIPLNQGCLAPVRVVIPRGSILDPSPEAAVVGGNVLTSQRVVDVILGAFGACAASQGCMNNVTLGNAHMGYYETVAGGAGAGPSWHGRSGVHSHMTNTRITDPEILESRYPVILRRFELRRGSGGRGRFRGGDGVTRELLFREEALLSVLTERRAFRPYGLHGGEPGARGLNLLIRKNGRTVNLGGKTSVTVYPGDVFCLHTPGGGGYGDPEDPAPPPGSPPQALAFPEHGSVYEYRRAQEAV
UniProt Q9BXW6, whole entry, looked up: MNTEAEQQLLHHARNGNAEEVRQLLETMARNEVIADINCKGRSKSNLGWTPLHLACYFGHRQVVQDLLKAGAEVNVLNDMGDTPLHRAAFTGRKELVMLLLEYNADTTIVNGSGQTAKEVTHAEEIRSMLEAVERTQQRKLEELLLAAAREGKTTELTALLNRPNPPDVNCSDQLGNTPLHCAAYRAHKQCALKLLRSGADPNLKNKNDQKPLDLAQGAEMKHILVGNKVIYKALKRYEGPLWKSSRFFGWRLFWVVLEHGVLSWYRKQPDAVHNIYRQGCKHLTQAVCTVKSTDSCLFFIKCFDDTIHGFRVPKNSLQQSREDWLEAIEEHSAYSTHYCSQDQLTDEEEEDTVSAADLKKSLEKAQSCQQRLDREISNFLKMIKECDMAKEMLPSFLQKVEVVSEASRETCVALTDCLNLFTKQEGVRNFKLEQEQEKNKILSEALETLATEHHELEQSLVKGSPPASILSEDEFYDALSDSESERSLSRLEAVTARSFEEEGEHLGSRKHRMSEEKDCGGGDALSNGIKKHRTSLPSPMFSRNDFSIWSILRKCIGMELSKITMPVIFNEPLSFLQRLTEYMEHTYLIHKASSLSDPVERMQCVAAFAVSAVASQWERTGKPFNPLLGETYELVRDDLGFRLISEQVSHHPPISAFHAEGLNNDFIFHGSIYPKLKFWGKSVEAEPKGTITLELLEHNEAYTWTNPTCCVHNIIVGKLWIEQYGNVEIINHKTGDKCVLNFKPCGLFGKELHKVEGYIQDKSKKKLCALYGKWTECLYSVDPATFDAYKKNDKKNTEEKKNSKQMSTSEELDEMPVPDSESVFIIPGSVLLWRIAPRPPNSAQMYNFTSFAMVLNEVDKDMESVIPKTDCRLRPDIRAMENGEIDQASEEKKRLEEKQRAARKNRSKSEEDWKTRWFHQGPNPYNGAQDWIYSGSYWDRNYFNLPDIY
UniProt Q9BZF1: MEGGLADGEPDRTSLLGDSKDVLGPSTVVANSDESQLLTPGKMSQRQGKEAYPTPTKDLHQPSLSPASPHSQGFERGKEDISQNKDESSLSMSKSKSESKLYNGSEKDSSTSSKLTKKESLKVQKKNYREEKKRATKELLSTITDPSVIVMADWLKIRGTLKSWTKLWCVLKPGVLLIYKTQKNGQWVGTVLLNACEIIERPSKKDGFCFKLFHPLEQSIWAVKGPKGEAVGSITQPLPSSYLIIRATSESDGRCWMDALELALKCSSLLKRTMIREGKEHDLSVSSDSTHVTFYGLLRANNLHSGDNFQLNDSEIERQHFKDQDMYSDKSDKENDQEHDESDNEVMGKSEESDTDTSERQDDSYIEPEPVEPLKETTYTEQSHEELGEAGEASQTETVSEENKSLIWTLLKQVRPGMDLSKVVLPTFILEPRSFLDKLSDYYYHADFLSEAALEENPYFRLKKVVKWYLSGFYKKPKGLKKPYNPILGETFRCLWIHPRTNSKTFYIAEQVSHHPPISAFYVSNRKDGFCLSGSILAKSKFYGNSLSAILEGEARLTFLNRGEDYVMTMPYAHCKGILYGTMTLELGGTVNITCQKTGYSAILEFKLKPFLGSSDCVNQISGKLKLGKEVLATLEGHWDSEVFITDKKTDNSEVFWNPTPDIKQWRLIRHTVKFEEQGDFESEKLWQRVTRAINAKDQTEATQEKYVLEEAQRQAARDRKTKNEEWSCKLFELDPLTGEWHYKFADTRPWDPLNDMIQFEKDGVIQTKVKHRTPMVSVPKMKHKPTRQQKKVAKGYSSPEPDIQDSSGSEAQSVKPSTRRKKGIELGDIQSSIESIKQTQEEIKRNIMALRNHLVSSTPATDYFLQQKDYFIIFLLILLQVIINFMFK
UniProt Q9UNF0: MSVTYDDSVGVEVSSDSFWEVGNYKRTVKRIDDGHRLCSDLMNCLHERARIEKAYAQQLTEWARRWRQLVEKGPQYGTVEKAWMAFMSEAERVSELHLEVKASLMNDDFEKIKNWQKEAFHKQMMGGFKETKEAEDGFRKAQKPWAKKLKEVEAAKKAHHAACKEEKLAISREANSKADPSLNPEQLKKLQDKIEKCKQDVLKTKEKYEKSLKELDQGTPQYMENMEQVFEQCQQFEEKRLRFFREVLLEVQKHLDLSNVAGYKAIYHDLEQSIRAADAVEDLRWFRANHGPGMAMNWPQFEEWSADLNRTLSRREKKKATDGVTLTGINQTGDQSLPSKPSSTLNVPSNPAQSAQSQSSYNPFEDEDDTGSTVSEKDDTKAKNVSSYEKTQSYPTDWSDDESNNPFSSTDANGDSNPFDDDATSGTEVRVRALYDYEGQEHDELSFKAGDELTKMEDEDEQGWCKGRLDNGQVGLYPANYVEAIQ
UniProt P22059, whole entry, looked up: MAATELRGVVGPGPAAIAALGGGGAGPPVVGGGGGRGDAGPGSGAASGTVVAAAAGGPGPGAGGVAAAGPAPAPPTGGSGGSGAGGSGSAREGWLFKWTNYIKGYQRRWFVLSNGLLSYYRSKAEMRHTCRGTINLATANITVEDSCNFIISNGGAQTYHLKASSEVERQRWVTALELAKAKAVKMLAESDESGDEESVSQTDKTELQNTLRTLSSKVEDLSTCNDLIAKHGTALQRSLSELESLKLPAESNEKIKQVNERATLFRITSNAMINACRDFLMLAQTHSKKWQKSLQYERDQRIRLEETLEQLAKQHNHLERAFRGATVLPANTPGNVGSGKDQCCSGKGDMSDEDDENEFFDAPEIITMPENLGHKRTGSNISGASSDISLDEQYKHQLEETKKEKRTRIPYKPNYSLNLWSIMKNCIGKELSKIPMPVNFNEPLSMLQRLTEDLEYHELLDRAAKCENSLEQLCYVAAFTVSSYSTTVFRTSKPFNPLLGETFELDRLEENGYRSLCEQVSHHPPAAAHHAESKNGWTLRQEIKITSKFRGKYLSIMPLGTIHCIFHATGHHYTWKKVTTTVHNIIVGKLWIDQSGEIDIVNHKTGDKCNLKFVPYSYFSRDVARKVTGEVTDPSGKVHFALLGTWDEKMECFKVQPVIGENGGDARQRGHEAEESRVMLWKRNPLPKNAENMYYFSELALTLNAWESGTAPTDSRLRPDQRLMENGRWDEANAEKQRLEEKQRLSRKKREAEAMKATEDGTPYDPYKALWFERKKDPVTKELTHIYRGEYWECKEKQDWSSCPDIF
UniProt O43913: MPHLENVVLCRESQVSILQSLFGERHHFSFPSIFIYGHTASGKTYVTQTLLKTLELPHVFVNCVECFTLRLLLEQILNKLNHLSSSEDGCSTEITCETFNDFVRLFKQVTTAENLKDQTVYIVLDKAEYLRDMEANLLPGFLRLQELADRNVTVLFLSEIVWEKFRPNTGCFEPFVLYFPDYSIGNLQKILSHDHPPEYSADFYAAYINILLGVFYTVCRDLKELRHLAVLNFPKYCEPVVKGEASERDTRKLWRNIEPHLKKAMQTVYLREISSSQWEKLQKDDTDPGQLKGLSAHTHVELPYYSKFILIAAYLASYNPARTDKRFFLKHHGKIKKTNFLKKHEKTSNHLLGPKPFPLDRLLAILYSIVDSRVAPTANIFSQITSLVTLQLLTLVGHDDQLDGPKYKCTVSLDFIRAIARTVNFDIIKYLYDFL
UniProt O96013: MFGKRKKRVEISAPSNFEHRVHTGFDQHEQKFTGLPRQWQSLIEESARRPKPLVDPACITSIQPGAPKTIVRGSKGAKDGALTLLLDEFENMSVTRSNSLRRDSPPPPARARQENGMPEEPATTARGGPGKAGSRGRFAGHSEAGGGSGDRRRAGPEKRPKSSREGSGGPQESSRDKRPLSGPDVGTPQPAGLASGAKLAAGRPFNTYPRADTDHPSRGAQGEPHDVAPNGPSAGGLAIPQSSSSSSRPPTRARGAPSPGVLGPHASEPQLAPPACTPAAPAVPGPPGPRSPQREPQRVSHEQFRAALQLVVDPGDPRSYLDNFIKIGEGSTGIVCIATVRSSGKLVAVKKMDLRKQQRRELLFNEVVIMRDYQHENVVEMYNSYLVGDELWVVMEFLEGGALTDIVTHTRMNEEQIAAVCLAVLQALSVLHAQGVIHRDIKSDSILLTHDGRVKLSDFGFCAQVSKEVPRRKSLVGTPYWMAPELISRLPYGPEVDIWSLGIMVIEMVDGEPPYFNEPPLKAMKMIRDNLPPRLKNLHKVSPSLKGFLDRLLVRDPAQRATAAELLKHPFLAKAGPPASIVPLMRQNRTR
UniProt Q92882: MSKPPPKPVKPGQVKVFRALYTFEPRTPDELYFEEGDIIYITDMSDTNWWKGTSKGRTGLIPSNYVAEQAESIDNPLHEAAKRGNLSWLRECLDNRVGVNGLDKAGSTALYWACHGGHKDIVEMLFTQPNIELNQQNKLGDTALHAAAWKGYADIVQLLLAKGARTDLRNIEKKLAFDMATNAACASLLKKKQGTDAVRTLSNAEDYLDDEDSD

compound: Cc1cc(ccc1-c1ccccc1)C(=O)N1CCCN(CC1)C(=O)CCl [compound 10]; assay: probe-labelled cysteine peptide fold change vs DMSO (competition) (log2 fold change); higher = less target engagement (more negative = stronger competition); details: 50 µM; THP-1; incubation time: 4 h
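Also: competitive profiling in live THP-1 cells: cysteine peptides tagged with an iodoacetamide desthiobiotin (IA-DTB) probe, intensity after compound treatment relative to DMSO-treated cells.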

Compared with “PALD1_Q9ULE6_631_IPMPDFCAPREEDFDQLLEALR (UniProt Q9ULE6)”, “PACS1_Q6VY07_732_VMQYVNGAATTHQLPVAEAMLTCR (UniProt Q6VY07)” is higher in “probe-labelled cysteine peptide fold change” value: 0.0649 for the first, 0.216 for the second.

Going from “PAFAH1B1_P43034_281_EHEHVVECISWAPESSYSSISEATGSETKK (UniProt P43034)” to “OPLAH_O14841_382_SGLFVVGPESAGAHPGPACYR (UniProt O14841)”, the “probe-labelled cysteine peptide fold change” value rises from -0.0113 to 0.035.

Going from “OSBPL1A_Q9BXW6_769_LCALYGK (UniProt Q9BXW6)” to “OSBPL8_Q9BZF1_575_GEDYVMTMPYAHCK (UniProt Q9BZF1)”, the “probe-labelled cysteine peptide fold change” value rises from -0.109 to 0.215.

First: PALD1_Q9ULE6_312_DAHGPPPALVFSCQMGVGR (UniProt Q9ULE6)
Second: OVCA2_Q8WZ82_64_SDFGSCPPEEQPR (UniProt Q8WZ82)
The “probe-labelled cysteine peptide fold change” value of the first is higher: 0.103 for the first, -0.173 for the second.

First: PARP14_Q460N5_509_VTQHLCLK (UniProt Q460N5)
Second: OSBPL1A_Q9BXW6_297_STDSCLFFIK (UniProt Q9BXW6)
The “probe-labelled cysteine peptide fold change” value of the first is higher: 0.48 for the first, -0.436 for the second.

First: PACSIN2_Q9UNF0_465_MEDEDEQGWCK (UniProt Q9UNF0)
Second: OSBP_P22059_803_QDWSSCPDIF (UniProt P22059)
The “probe-labelled cysteine peptide fold change” value of the first is lower: 0.287 for the first, 0.348 for the second.

First: ORC5_O43913_63_TLELPHVFVNCVECFTLR (UniProt O43913)
Second: PAICS_P22234_295_ACGNFGIPCELR (UniProt P22234)
The “probe-labelled cysteine peptide fold change” value of the first is higher: 0.316 for the first, -0.15 for the second.

Compared with “PAK4_O96013_336_IGEGSTGIVCIATVR (UniProt O96013)”, “OSTF1_Q92882_185_LAFDMATNAACASLLKK (UniProt Q92882)” is lower in “probe-labelled cysteine peptide fold change” value: 0.283 for the first, -0.411 for the second.
